Entries after “also recorded” stand apart in the source; their conditions may differ. At least one compound was matched to its structure with a doubt left.
Assays:
[1] = test system: HEK293 cells stably expressing AC; assay: cAMP production in HEK293 cell lines stably expressing AC; format: cell-based, human
NCB20 cells = assay: CRF-induced cAMP accumulation in NCB20 cells; format: cell-based
[2] = test system: HEK293 cells transfected with AC; assay: cAMP in HEK293 cells transiently transfected with AC; format: cell-based, human; conditions: FK506 2 μmol/l, L-685,818 100 μmol/l
AtT20 cells [3] = assay: cAMP accumulation induced by β-adrenergic stimulation (isoproterenol) in AtT20 cells; format: cell-based, mouse
HEK293 cells = assay: CRF-induced and unstimulated cAMP in HEK293 cells without AC (wild type, sham or pcDNA3 vector); format: cell-based, human
AtT20 cells [4] = assay: CRF-induced cAMP accumulation in AtT20 cells; format: cell-based, mouse; conditions: EGTA 2 mmol/l, nimodipine 1 μmol/l, BAPTA-AM 20 μmol/l in preincubation; IBMX 0.5 mmol/l
Protocol: Experiments for cAMP were all carried out in Hanks balanced salt solution containing 2 mM CaCl2 and 1 mM MgSO4 buffered with 25 mM HEPES pH 7.4 and supplemented with 0.25% (w/v) of bovine serum albumin. The cells were preincubated in serum free medium for 1 hour, after which blockers of phosphosdiesterase (isobutylmethylxanthine 0.5 mM (IBMX) and/or rolipram 0.1 mM) along with various other treatments were applied for 30 minutes at 37° C. Subsequently the cells were cooled to 22° C. for 5 minutes in a water bath and agonists were added for 10 minutes. The reaction was stopped by the addition of 0.2 mol/l HCl to achieve a final concentration of 0.1 mol/l (Brooker et al, (1979) Adv. in Cyclic Nucl. Res. Vol. 10, G. Brooker, P. Greengard and G. A. Robinson, Raven Press, New York, 2-34).
In some experiments cells were preincubated for 30 minutes in medium containing 2 mmol/l EGTA and no added Ca^2+, supplemented with 5 μmol/l A23187 and 2.5 μmol/l nifedipine in order to deplete rapidly mobilized cellular stores of Ca^2+. […] The rationale for this pretreatment is that calcineurin reportedly influences L-channel activity (Lai et al, (1993) J. Neurochem. 61:1333-1339; and Armstrong et al, (1987) Proc. Natl. Acad. Sci. U.S.A. 84:2518-2522), whereas the treatment regimen used here would make Ca^2+ entry independent of this regulation. […]

[5] = test system: HEK293 cells overexpressing human AC9; assay: Ca2+/calcineurin inhibition of cAMP production in HEK293 cells overexpressing human AC9; format: cell-based
Protocol: The complete coding sequence of human AC9 was cloned into the expression vector pcDNA3. This constuct and pcDNA3 (10 μg) were each linearised by PvuI digestion prior to electroporation into HEK293 cells. Stably transfected clones were selected for resistance to G418 (Gibco) at […] in Dulbecco's modified Eagle's medium (DMEM) supplemented with 10% foetal calf serum. A total of 12 clones were expanded and over-expression of human AC9 confirmed in 9 cell lines by immunoblotting using antisera raised against a pentadecapeptide derived from the N-terminus of mouse AC9 (Paterson et al, (1995) Biochem. Biophys. Res. Commun. 214:1000-8). […] Analysis of clone 7 is reported here.
HEK-293 cells display complex intracellular Ca2+ handling mechanisms that may be controlled by cAMP and calcineurin (Lin et al, (1995) Mol. Pharmacol. 47:131-9; Gromada et al, (1995) FEBS Letts. 373:182-6; Querfurth et al, (1998) Biochem J. 334:79-86), and thus complicate the interpretation of the data. Therefore, intracellular stores of Ca^2+ were depleted to reduce the contribution of intracellular Ca^2+ pools to the intracellular free Ca^2+ signal. […] Two different Ca^2+ depletion protocols were used (Antoni et al, (1998) supra). […] The total cAMP content of the cells and the medium was determined after freeze-thawing and acetylation by radioimmunoassay (Antoni et al, (1995) J. Biol. Chem. 270:28055-61).

Structure (SMILES): C=CC[C@@H]1/C=C(\C)C[C@H](C)C[C@H](OC)[C@H]2O[C@@](O)(C(=O)C(=O)N3CCCC[C@H]3C(=O)O[C@H](/C(C)=C/[C@@H]3CC[C@@H](O)[C@H](OC)C3)[C@H](C)[C@@H](O)CC1=O)[C@H](C)C[C@@H]2OC [FK506]
- cAMP production in response to CRF [1]: enhanced
- CRF-induced cAMP accumulation (NCB20 cells): not altered
- cAMP response to CRF [2]: significantly enhanced the cAMP response to 1 but not to 5
- isoproterenol induced cAMP formation (AtT20 cells [3]): enhanced
- cAMP levels in sham-transfected or pcDNA3-transfected cells (HEK293 cells; FK506 2 μmol/l, L-685,818 100 μmol/l): specific to cells transfected with AC
- CRF-induced cAMP formation (HEK293 cells; HEK293 cells, endogenous CRF receptors): no effects were observed; also recorded: not altered

Structure (SMILES): COCCOC(=O)C1=C(C)NC(C)=C(C(=O)OC(C)C)C1c1cccc([N+](=O)[O-])c1 (stereo not drawn) [nimodipine]
- cAMP response to CRF after lowering intracellular free Ca2+ (AtT20 cells [4]): markedly increased the cAMP response to CRF

Structure (SMILES): CO[C@H]1C[C@@H]2CC[C@@H](C)[C@@](O)(O2)C(=O)C(=O)N2CCCC[C@H]2C(=O)O[C@H]([C@H](C)C[C@@H]2CC[C@@H](O)[C@H](OC)C2)CC(=O)[C@H](C)/C=C(\C)[C@@H](O)[C@@H](OC)C(=O)[C@H](C)C[C@H](C)/C=C/C=C/C=C/1C [rapamycin]
- cAMP production in hAC9 expressing cells [5]: had no effect on cAMP production
- inhibitory effect of Ca2+ on cAMP production ([5]; FK506, cyclosporin A, rapamycin 10 μM, L685,818 50 μM, PDE blockers present): failed to block the inhibitory action of Ca^2+ on cAMP production
